The source of these data is PubChem BioAssay AID2685 (National Center for Advancing Translational Sciences (NCATS), 2010).

The list shows a part of the results. These are further read-outs of the screen, such as a control signal, another cell line or another target. No call is given for them. Most of these compounds were active or inconclusive in the main read-out, so they are no random draw. The note in brackets gives the kind of curve behind each potency; many fits are weak. Where a SMILES comes first, the peptide text is derived from it. The star is where a group is joined. Boc = CC(C)(C)OC(=O)*; OtBu = CC(C)(C)O*

The assay in a line: qHTS Assay for Lipid Storage Modulators in Drosophila S3 Cells.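 On cell number change: cells counted by Cell Tracker Red CMTPX staining in the red channel.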 Particulars: BODIPY lipid droplet fluorescence, 18-24 h; for cell number change: measured here: cell count max response, cells fed with added oleic acid. In a few lines: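 Drosophila S3 cells got compounds at several concentrations plus oleic acid (400 uM solution). Laser-scanning cytometry with 488 nm excitation read lipid droplets at 500-530 nm and cells at 575-640 nm. Percent activity was relative to 20 uM Triacsin C.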

The mark [1] stands for this setting: measured here: lipid fluorescence (Fed channel) AC50, cells fed with added oleic acid.
The mark [2] stands for this setting: measured here: cell number channel AC50, cells fed with added oleic acid.

For the molecule `CCn1cc(C2C3=C(CC(C)(C)CC3=O)N(c3ccccc3)C3=C2C(=O)CC(C)(C)C3)c(C)n1`, the cell number change was determined as 24.7%. In addition, the AC50 under setting [1] was 0.103 µM [falling, full curve, poor fit].

`CCOc1ccc(NC(=O)c2ccc(NC(=O)c3cn4c5c(c(N6CCN(C)CC6)c(F)cc5c3=O)OCC4C)cc2)cc1` (stereo unspecified): the cell number change was 19.7%. The AC50 under setting [1] was 32.6 µM [rising, single point].

As to `COc1ccc(CNS(=O)(=O)c2cc3c(cc2Cl)NC(=O)CO3)cc1`, the cell number change worked out at 5.76%. For the same molecule, under setting [1], the AC50 is 29.1 µM [rising, single point].

With `CC(C)CCOc1ccc(C(CC(N)=O)C(=O)O)cc1` (stereo unspecified), the cell number change was -3.23%. Under setting [2], the AC50 is 0.58 µM [falling, single point]. In addition, the AC50 under setting [1] was 0.731 µM [falling, full curve].

As to `COc1ccc(OCCC(=O)OCC(=O)NC2CCCCCCC2)cc1`, the cell number change was 137%. Under setting [2], the AC50 is 29.1 µM [rising, partial curve, poor fit].

Consider `CC(C)(C)NC(=O)C(c1cccs1)N(C(=O)c1csnn1)c1cccc(F)c1` (stereo unspecified), for which the cell number change is -7.02%. In addition, the AC50 under setting [1] was 0.259 µM [falling, partial curve, poor fit].

In the case of `Cc1ccccc1C(=O)O/N=C(\N)Cc1cccs1`, the cell number change turned out to be 26.5%.

As to `Cc1cc(-c2ccccc2)nc2cc(C(N)=O)nn12`, the cell number change amounted to 15.7%. In addition, the AC50 under setting [1] is 5.8 µM [rising, partial curve].

As to `COC(=O)C(Cc1ccc(O)cc1)NC(=O)C(CC(=O)OC(C)(C)C)NC(=O)OC(C)(C)C` (stereo unspecified) (Boc-Asp(OtBu)-Tyr-OMe; configuration not given here), the cell number change is -19.2%. For the same molecule, the AC50 under setting [1] was 8.2 µM [falling, partial curve].

Turning to `COc1ccccc1N(CC(O)Cn1ccnc1C)S(=O)(=O)c1ccccc1` (stereo unspecified), the cell number change was -36.2%. Further, the AC50 under setting [2] is 29.1 µM [falling, single point].

As to `O=C(CSc1nc2ccc([N+](=O)[O-])cc2s1)NCC1CCCO1` (stereo unspecified), the cell number change is -21.9%. For the same molecule, the AC50 under setting [1] was 6.51 µM [falling, single point].

For `Cc1cc(C)cc(NC(=S)N(CCN(C)C)C(C)c2cccnc2)c1` (stereo unspecified), the cell number change turned out to be 38.3%. Moreover, the concentration at half-maximal activity (AC50) under setting [2] is 29.1 µM [rising, single point].

As to `CCCn1nc(NC(=O)C(C)C)c2cc3cc(OC)ccc3nc21`, the cell number change is -9.91%. Further, under setting [1], the half-maximal activity concentration (AC50) was 0.58 µM [falling, single point].

Take `COc1cc(/C=N/NC(=S)NC(C)C)ccc1OCC(=O)Nc1c(C)cc(C)cc1C`: the cell number change was found to be 18.8%. Also, under setting [1], the AC50 is 29.1 µM [rising, single point].

`CCOC(=O)c1cccc(NC(=O)CSc2nnc(COc3ccccc3)n2CC)c1`: the cell number change was -38.3%. Under setting [2], the AC50 is 23.1 µM [falling, single point]. Under setting [1], the AC50 is 29.1 µM [falling, partial curve, poor fit].

Usually AC50 stands for the midpoint of the concentration-response curve, whichever way the signal moves. Higher therefore signals activity only at high concentration.
